Measured values published in PubChem BioAssay AID588590 (National Center for Advancing Translational Sciences (NCATS), 2011).
Hit rate of the full screen: of about 390,000 compounds, about 4,000 (1%) were called active. The shares of active, inactive and inconclusive entries below differ from those in the screen. The call rests on the fitted dose curve; in most records, active means well fitted inhibition curve with a large enough effect; inconclusive means small, poorly fitted or top-dose-only effect, or another doubt; inactive means no such curve, though single readings can be large or run the other way. Potencies beside an inconclusive call are fits to weak or partial responses and may not hold up.

Chains of the proteins cited; added tags and fusions are not shown. Lines headed by an entry give the natural chain unless they say otherwise; changes in a name come on top.
UniProt Q9UNA4: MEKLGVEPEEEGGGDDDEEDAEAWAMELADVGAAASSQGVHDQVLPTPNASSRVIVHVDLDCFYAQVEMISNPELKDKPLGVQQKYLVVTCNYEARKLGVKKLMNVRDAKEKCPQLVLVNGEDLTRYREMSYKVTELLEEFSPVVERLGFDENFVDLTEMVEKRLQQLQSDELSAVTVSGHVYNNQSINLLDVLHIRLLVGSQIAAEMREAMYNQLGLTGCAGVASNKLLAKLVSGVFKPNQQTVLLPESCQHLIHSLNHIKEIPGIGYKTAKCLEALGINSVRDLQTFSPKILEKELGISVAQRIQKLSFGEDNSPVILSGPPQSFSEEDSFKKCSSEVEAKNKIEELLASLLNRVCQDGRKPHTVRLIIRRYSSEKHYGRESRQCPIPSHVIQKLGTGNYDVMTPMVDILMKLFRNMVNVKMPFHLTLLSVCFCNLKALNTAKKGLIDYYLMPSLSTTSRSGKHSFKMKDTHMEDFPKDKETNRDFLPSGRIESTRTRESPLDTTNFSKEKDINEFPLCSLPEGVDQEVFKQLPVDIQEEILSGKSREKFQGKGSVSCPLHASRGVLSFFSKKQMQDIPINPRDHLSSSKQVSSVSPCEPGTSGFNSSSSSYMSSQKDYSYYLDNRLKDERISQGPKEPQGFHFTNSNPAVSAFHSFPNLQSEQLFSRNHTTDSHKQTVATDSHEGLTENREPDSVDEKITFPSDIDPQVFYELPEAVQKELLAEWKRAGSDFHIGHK

Each compound was assayed against DNA polymerase iota (Homo sapiens) (UniProt Q9UNA4) (assay: qHTS for Inhibitors of Polymerase Iota). Conditions: Pol iota fluorescent replication assay, 10 min; series mostly up to 115 µM; activity, negative = inhibition: at the top concentration.
How it was run: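 Fluorescent replication assay read twice, at 0 min and 10 min after adding 50 nM (final) substrate. Enzyme (10 nM) and compounds were first incubated 15 min at room temperature; enzyme-free buffer wells were negative controls.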
Potency means the concentration at half of the fitted maximal effect.

SMILES	Potency	activity, negative = inhibition
Cc1ccc(NC(=O)CN2C(=O)S/C(=C\c3cc(Cl)c(OCC(=O)O)c(Cl)c3)C2=O)cc1	inconclusive: 25.1 µM [inhibitor, full curve, poor fit]	–
CC(/C=C/C=C/c1ccccc1)=N/NC(=O)CNc1ccccc1C	–	inactive: 25.8%
COc1ccc(-c2csc(N(Cc3ccco3)C(=O)c3cccs3)n2)cc1	inconclusive: 11.2 µM [inhibitor, partial curve, poor fit]	–
COCCNC(=O)c1ccc2c(=O)n(Cc3ccco3)c(SCC(=O)Nc3ccc(OC)cc3OC)nc2c1	inconclusive: 39.8 µM [inhibitor, full curve]	–
Cc1ccc2nc(-c3ccc(NC(=O)c4ccco4)cc3)[nH]c2c1	inconclusive: 50.1 µM [inhibitor, partial curve, poor fit]	–
C=C1CSc2nc(=O)c3c4c(sc3n21)CCCC4	inconclusive: 25.1 µM [inhibitor, single point]	–
CCOC(=O)Cc1ccc(NC(=O)N2CC(CC)Oc3ccccc32)cc1 (stereo unspecified)	–	inactive: 11%
CCc1ccc(S(=O)(=O)c2nnn3c2nc(N2CCCC(C)C2)c2cc(Cl)ccc23)cc1 (stereo unspecified)	–	inactive: 9.06%
Cc1nc2c(nc1C)C(=O)c1ccccc1C2=O	–	inactive: 12.7%
Cn1c(=O)c2[nH]c(NN=Cc3cccc(Br)c3)nc2n(C)c1=O	inconclusive: 28.2 µM [inhibitor, partial curve, poor fit]	–
COc1ccc(-c2coc3c(C)c4oc(=O)c(CCC(=O)O)c(C)c4cc23)cc1	inconclusive: 28.2 µM [inhibitor, single point]	–
CC(=O)c1c(O)cc(O)cc1CC(=O)O	inconclusive: 126 µM [inhibitor, partial curve, poor fit]	–
CC(C)(C)C1CCc2c(sc(NC(=O)c3ccncc3)c2C(=O)Nc2ccccc2Cl)C1 (stereo unspecified)	inconclusive: 50.1 µM [inhibitor, partial curve]	–
Cc1ccc(S(=O)(=O)c2c(N)n(CCC(C)C)c3nc4ccccc4nc23)cc1	inconclusive: 14.1 µM [inhibitor, partial curve, poor fit]	–
COc1ccc(N2CCN(C(=O)CCn3cnc4onc(-c5ccc(F)cc5)c4c3=O)CC2)cc1	inconclusive: 79.4 µM [inhibitor, partial curve, poor fit]	–
CN=c1scc(-c2ccccc2F)n1/N=C/c1ccc[nH]1	–	inactive: 13.2%
CC(C)N1CCC(N2CCN(C3CCCC3)CC2CCO)CC1 (stereo unspecified)	–	inactive: 60.6%
Cc1ccc(C(=O)NC2(C(F)(F)F)C(=O)Nc3c2c(=O)[nH]c(=O)n3CCc2ccccc2)cc1 (stereo unspecified)	–	inactive: -16.9%
O=C1CCCc2[nH]c3cccc(/C(=C/c4ccccc4)c4ccccc4)c3c21	inconclusive: 79.4 µM [inhibitor, partial curve]	–
COc1ccc(-c2cc(C(=O)Oc3ccc(C)c(C)c3)c3ccccc3n2)cc1	–	inactive: -8.85%
O=C(Cn1c(=O)n(Cc2ccc3c(c2)OCO3)c(=O)c2ccc(C(=O)NC3CCCCC3)cc21)Nc1ccccc1F	–	inactive: 24.2%

SMILES	Potency	activity, negative = inhibition
OCC[N+]1(CCc2ccccc2)CCOCC1	–	inactive: 1.33%
c1ccc(-c2ccc(Oc3cc(N4CCOCC4)nc(-c4ccccc4)n3)cc2)cc1	inconclusive: 10 µM [inhibitor, partial curve, poor fit]	–
O=[N+]([O-])c1ccc(O/N=[N+](\[O-])N2CCN(c3ccccc3)CC2)c([N+](=O)[O-])c1	inconclusive: 31.6 µM [inhibitor, single point]	–
Cc1cccc(-n2c3nc(=O)n(C)c(=O)c-3cc3ccc(Cl)cc32)c1C	–	inactive: -12.3%
CCOC(=O)C1=C(C)N=c2s/c(=C\c3ccc(OCC(=O)O)cc3)c(=O)n2C1c1ccc(Cl)cc1 (stereo unspecified)	inconclusive: 39.8 µM [inhibitor, partial curve, poor fit]	–
Cc1nc2nc(NC(=O)c3ccc(Cl)cc3)[nH]n2c(=O)c1Cc1ccccc1	inconclusive: 22.4 µM [inhibitor, partial curve, poor fit]	–
CS(=O)(=O)c1sc(C(=O)NC(=S)Nc2ccc(OC(F)(F)F)cc2)c2c1C=CCC2	inconclusive: 28.2 µM [inhibitor, single point]	–
CCOC(=O)CC(=O)CSc1nc(-c2cccnc2)cc(C)c1C#N	inconclusive: 15.8 µM [inhibitor, partial curve, poor fit]	–
O=c1c(Cl)c(Nc2cccc(Cl)c2)cnn1-c1nc2ccccc2s1	inconclusive: 22.4 µM [inhibitor, partial curve, poor fit]	–
O=C(CCc1ccc(O)cc1)c1c(O)cc(O)cc1O	inactive	–
CC1=C(C(=O)Nc2ccccc2C)C(c2ccccn2)n2nc(SCc3ccccc3F)nc2N1 (stereo unspecified)	–	inactive: -21.4%
Cc1ccc(C(=O)NNC(=O)Cc2ccccc2)cc1	–	inactive: 32.7%
CN(CCc1ccccc1)C(=O)c1ccc(NC(=O)Cc2ccc(NC(=O)C3CCCN(C(=O)C4CCCCC4)C3)cc2)cc1 (stereo unspecified)	inconclusive: 31.6 µM [inhibitor, single point]	–
O=c1[nH]c2cc([N+](=O)[O-])c([N+](=O)[O-])cc2[nH]c1=O	inconclusive: 56.2 µM [inhibitor, partial curve, poor fit]	–
O=C1c2sc3nc4n(c(=O)c3c2CCC1Br)CCCCC4 (stereo unspecified)	inconclusive: 39.8 µM [inhibitor, single point]	–
CCN1C(=S)SC(=O)C1=C1C=C(C)N(Cc2ccco2)C(C)=C1	inconclusive: 39.8 µM [inhibitor, partial curve, poor fit]	–
O=C(NC1(C(F)(F)F)NC(=O)N(C2CCCCC2)C1=O)c1ccco1 (stereo unspecified)	inconclusive: 89.1 µM [inhibitor, single point]	–
C[N+]1(CC(=O)c2ccc(Oc3ccc(C(=O)C[N+]4(C)CCOCC4)cc3)cc2)CCOCC1	inconclusive: 56.2 µM [inhibitor, partial curve, poor fit]	–
Cc1cccc(C2=NN(c3ccccc3)[C@H](CO)[C@H]2c2ccc(Cl)cc2)c1	–	inactive: -2.61%
O=S(=O)(c1ccc(Br)cc1)c1nnn2c1nc(NCc1cccs1)c1sccc12	inconclusive: 31.6 µM [inhibitor, single point]	–

Gathered by group: those above containing a nitro group on carbon.
SMILES	Potency	activity, negative = inhibition
O=[N+]([O-])c1ccc(O/N=[N+](\[O-])N2CCN(c3ccccc3)CC2)c([N+](=O)[O-])c1	inconclusive: 31.6 µM [inhibitor, single point]	–
O=c1[nH]c2cc([N+](=O)[O-])c([N+](=O)[O-])cc2[nH]c1=O	inconclusive: 56.2 µM [inhibitor, partial curve, poor fit]	–
